The values below come from patent publication US20190040130A1.

Sequences of proteins named here, by UniProt entry; tags and fusion partners are left off. A change or cut given only in a name is not applied to a line headed by its entry.
UniProt Q9NZC2: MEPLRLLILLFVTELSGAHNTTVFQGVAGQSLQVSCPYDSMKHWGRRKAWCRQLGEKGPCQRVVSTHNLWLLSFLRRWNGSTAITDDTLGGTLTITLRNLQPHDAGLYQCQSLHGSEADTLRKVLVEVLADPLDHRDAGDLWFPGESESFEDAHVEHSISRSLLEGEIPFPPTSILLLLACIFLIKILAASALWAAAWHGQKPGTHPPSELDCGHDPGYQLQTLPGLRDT

These are yes or no findings as the source states them, for the method shown. Some entries that bind do so weakly or less than the wild type.

B1: AL2p-h23 (antibody, IgG1, V domains shown)
VH: QVQLVQSGAEVKKPGASLKISCKASGYAFSSSWMNWVRQAPGQGLEWIGRIYPGDGDTNYAQKFQGRATLTADTSTSTAYMELSSLRSEDTAVYYCARLLRNQPGESYAMDYWGQGALVTVSS
VL: DVVMTQTPLSLSVTPGQPASISCRSSQSLVHSNGYTYLHWYLQKPGQSPQLLIYKVSNRFSGVPDRFSGSGSGTDFTLKISRVEAEDLGVYFCSQSTRVPYTFGQGTKLEIK
B2: AL2p-h34 (antibody, IgG1, V domains shown)
VH: QVQLVQSGAEVKKPGSSVKVSCKASGYAFSSSWMNWVRQAPGQGLEWIGRIYPGDGDTNYAQKFQGRATITADTSTSTAYMELSSLRSEDTAVYFCARLLRNQPGESYAMDYWGQGTLVTVSS
VL: DVVMTQTPLSLSVTPGQPASISCRSSQSLVHSNGYTYLHWYLQKPGQSPQLLIYKVSNRFSGVPDRFSGSGSGTDFTLKISRVEAEDLGVYFCSQSTRVPYTFGQGTKLEIK
B3: AL2p-h35 (antibody, IgG1, V domains shown)
VH: QVQLVQSGAEVKKPGSSVKVSCKASGYAFSSSWMNWVRQAPGQGLEWMGRIYPGDGDTNYAQKFQGRATITADTSTSTAYMELSSLRSEDTAVYYCARLLRNQPGESYAMDYWGQGTLVTVSS
VL: DVVMTQTPLSLSVTPGQPASISCRSSQSLVHSNGYTYLHWYLQKPGQSPQLLIYKVSNRFSGVPDRFSGSGSGTDFTLKISRVEAEDLGVYFCSQSTRVPYTFGQGTKLEIK
B4: AL2p-h24 (antibody, IgG1, V domains shown)
VH: QVQLVQSGAEVVKPGASLKISCKASGYAFSSSWMNWVRQAPGQGLEWIGRIYPGDGDTNYNQKFQGRATLTADTSTSTAYMELSSLRSEDTAVYFCARLLRNQPGESYAMDYWGQGALVTVSS
VL: DVVMTQTPLSLSVTPGQPASISCRSSQSLVHSNGYTYLHWYLQKPGQSPQLLIYKVSNRFSGVPDRFSGSGSGTDFTLKISRVEAEDLGVYFCSQSTRVPYTFGQGTKLEIK
B5: AL2p-h26 (antibody, IgG1, V domains shown)
VH: QVQLVQSGAEVKKPGASVKVSCKASGYAFSSSWMNWVRQAPGQRLEWIGRIYPGDGDTNYAQKFQGRVTITADTSASTAYMELSSLRSEDTAVYYCARLLRNQPGESYAMDYWGQGTLVTVSS
VL: DVVMTQTPLSLSVTPGQPASISCRSSQSLVHSNGYTYLHWYLQKPGQSPQLLIYKVSNRFSGVPDRFSGSGSGTDFTLKISRVEAEDLGVYFCSQSTRVPYTFGQGTKLEIK
B6: AL2p-h77 (antibody, IgG1, V domains shown)
VH: QVQLVQSGAEVKKPGASVKVSCKASGYAFSSSWMNWVRQAPGQRLEWIGRIYPGDGDTNYAQKFQGRVTITADTSASTAYMELSSLRSEDTAVYYCARLLRNQPGESYAMDYWGQGTLVTVSS
VL: DVVMTQSPDSLAVSLGERATINCRSSQSLVHSNGYTYLHWYQQKPGQSPKLLIYKVSNRFSGVPDRFSGSGSGTDFTLTISSLQAEDVAVYYCSQSTRVPYTFGGGTKVEIK
B7: AL2p-h90 (antibody, IgG1, V domains shown)
VH: QVQLVQSGAEVKKPGASVKVSCKASGYAFSSSWMNWVRQAPGQRLEWIGRIYPGDGDTNYAQKFQGRVTITADTSASTAYMELSSLRSEDTAVYYCARLLRNQPGESYAMDYWGQGTLVTVSS
VL: DVQMTQSPSSLSASVGDRVTITCRSSQSLVHSNGYTYLHWYQQKPGKSPKLLIYKVSNRFSGVPSRFSGSGSGTDFTLTISSLQPEDFATYYCSQSTRVPYTFGGGTKVEIK
B8: AL2p-h27 (antibody, IgG1, V domains shown)
VH: QVQLVQSGAEVKKPGASVKVSCKASGYAFSSSWMNWVRQAPGQGLEWIGRIYPGDGDTNYNGEFRVRATLTADTSTSTAYMELSSLRSEDTAVYFCARLLRNQPGESYAMDYWGQGTLVTVSS
VL: DVVMTQTPLSLSVTPGQPASISCRSSQSLVHSNGYTYLHWYLQKPGQSPQLLIYKVSNRFSGVPDRFSGSGSGTDFTLKISRVEAEDLGVYFCSQSTRVPYTFGQGTKLEIK
B9: AL2p-h32 (antibody, IgG1, V domains shown)
VH: QVQLVQSGAEVKKPGSSVKVSCKASGYAFSSSWMNWVRQAPGQGLEWIGRIYPGDGDTNYNGEFRVRATLTADTSTTTAYMELSSLRSEDTAVYFCARLLRNQPGESYAMDYWGQGTLVTVSS
VL: DVVMTQTPLSLSVTPGQPASISCRSSQSLVHSNGYTYLHWYLQKPGQSPQLLIYKVSNRFSGVPDRFSGSGSGTDFTLKISRVEAEDLGVYFCSQSTRVPYTFGQGTKLEIK
B10: AL2p-h59 (antibody, IgG1, V domains shown)
VH: QVQLVQSGAEVKKPGASVKVSCKASGYAFSSSWMNWVRQAPGQRLEWMGRIYPGDGDTNYAQKFQGRVTITRDTSASTAYMELSSLRSEDTAVYYCARLLRNQPGESYAMDYWGQGTLVTVSS
VL: DIVMTQSPLSLPVTPGEPASISCRSSQSLVHSNGYTYLHWYLQKPGQSPQLLIYKVSNRFSGVPDRFSGSGSGTDFTLKISRVEAEDVGVYYCSQSTRVPYTFGGGTKVEIK
B11: AL2p-h33 (antibody, IgG1, V domains shown)
VH: QVQLVQSGAEVKKPGSSVKVSCKASGYAFSSSWMNWVRQAPGQGLEWIGRIYPGDGDTNYAQKFQGRATLTADTSTTTAYMELSSLRSEDTAVYFCARLLRNQPGESYAMDYWGQGTLVTVSS
VL: DVVMTQTPLSLSVTPGQPASISCRSSQSLVHSNGYTYLHWYLQKPGQSPQLLIYKVSNRFSGVPDRFSGSGSGTDFTLKISRVEAEDLGVYFCSQSTRVPYTFGQGTKLEIK
B12: AL2p-h25 (antibody, IgG1, V domains shown)
VH: QVQLVQSGAEVKKPGASLKISCKASGYAFSSSWMNWVRQAPGQGLEWIGRIYPGDGDTNYNGEFRVRATLTADTSTSTAYMELSSLRSEDTAVYYCARLLRNQPGESYAMDYWGQGALVTVSS
VL: DVVMTQTPLSLSVTPGQPASISCRSSQSLVHSNGYTYLHWYLQKPGQSPQLLIYKVSNRFSGVPDRFSGSGSGTDFTLKISRVEAEDLGVYFCSQSTRVPYTFGQGTKLEIK
B13: AL2p-h21 (antibody, IgG1, V domains shown)
VH: QVQLVQSGAEVKKPGASVKVSCKASGYAFSSSWMNWVRQAPGQGLEWMGRIYPGDGDTNYAQKFQGRVTMTRDTSTSTVYMELSSLRSEDTAVYYCARLLRNQPGESYAMDYWGQGTLVTVSS
VL: DVVMTQTPLSLSVTPGQPASISCRSSQSLVHSNGYTYLHWYLQKPGQSPQLLIYKVSNRFSGVPDRFSGSGSGTDFTLKISRVEAEDLGVYFCSQSTRVPYTFGQGTKLEIK
B14: AL2p-h30 (antibody, IgG1, V domains shown)
VH: QVQLVQSGAEVKKPGASVKVSCKASGYAFSSSWMNWVRQAPGQGLEWMGRIYPGDGDTNYAQKFQGRVTMTADTSTSTAYMELSSLRSEDTAVYYCARLLRNQPGESYAMDYWGQGTLVTVSS
VL: DVVMTQTPLSLSVTPGQPASISCRSSQSLVHSNGYTYLHWYLQKPGQSPQLLIYKVSNRFSGVPDRFSGSGSGTDFTLKISRVEAEDLGVYFCSQSTRVPYTFGQGTKLEIK
B15: AL2p-h19 (antibody, IgG1, V domains shown)
VH: QVQLVQSGAEVKKPGSSVKVSCKASGYAFSSSWMNWVRQAPGQGLEWMGRIYPGDGDTNYAQKFQGRATITADTSTSTAYMELSSLRSEDTAVYYCARLLRNQPGESYAMDYWGQGTLVTVSS
VL: DIVMTQTPLSLSVTPGQPASISCRSSQSLVHSNGYTYLHWYLQKPGQSPQLLIYKVSNRFSGVPDRFSGSGSGTDFTLKISRVEAEDVGVYYCSQSTRVPYTFGQGTKLEIK
B16: AL2p-h22 (antibody, IgG1, V domains shown)
VH: QVQLVQSGAEVKKPGASVKVSCKASGYAFSSSWMNWVRQAPGQGLEWIGRIYPGDGDTNYAQKFQGRVTMTADTSTSTVYMELSSLRSEDTAVYYCARLLRNQPGESYAMDYWGQGTLVTVSS
VL: DVVMTQTPLSLSVTPGQPASISCRSSQSLVHSNGYTYLHWYLQKPGQSPQLLIYKVSNRFSGVPDRFSGSGSGTDFTLKISRVEAEDLGVYFCSQSTRVPYTFGQGTKLEIK
B17: AL2p-h76 (antibody, IgG1, V domains shown)
VH: QVQLVQSGAEVKKPGASVKVSCKASGYAFSSSWMNWVRQAPGQRLEWIGRIYPGDGDTNYAQKFQGRATITADTSASTAYMELSSLRSEDTAVYFCARLLRNQPGESYAMDYWGQGTLVTVSS
VL: DVVMTQSPDSLAVSLGERATINCRSSQSLVHSNGYTYLHWYQQKPGQSPKLLIYKVSNRFSGVPDRFSGSGSGTDFTLTISSLQAEDVAVYYCSQSTRVPYTFGGGTKVEIK
B18: AL2p-47 (antibody, IgG1, V domains shown)
VH: QVQLVQSGAEVKKPGSSVKVSCKASGYAFSSDWMNWVRQAPGQGLEWMGRIYPGEGDTNYARKFHGRVTITADESTSTAYMELSSLRSEDTAVYYCARLLRNKPGESYAMDYWGQGTLVTVSS
VL: DVVMTQTPLSLSVTPGQPASISCRTSQSLVHSNAYTYLHWYLQKPGQSPQLLIYKVSNRVSGVPDRFSGSGSGTDFTLKISRVEAEDVGVYYCSQSTRVPYTFGQGTKLEIK
B19: AL2p-47 huIgG1 (antibody, V domains shown)
VH: QVQLVQSGAEVKKPGSSVKVSCKASGYAFSSDWMNWVRQAPGQGLEWMGRIYPGEGDTNYARKFHGRVTITADESTSTAYMELSSLRSEDTAVYYCARLLRNKPGESYAMDYWGQGTLVTVSS
VL: DVVMTQTPLSLSVTPGQPASISCRTSQSLVHSNAYTYLHWYLQKPGQSPQLLIYKVSNRVSGVPDRFSGSGSGTDFTLKISRVEAEDVGVYYCSQSTRVPYTFGQGTKLEIKR
B20: AL2p-37 (antibody, IgG1, V domains shown)
VH: QVQLVQSGAEVKKPGASVKVSCKASGYAFSSQWMNWVRQAPGQRLEWIGRIYPGGGDTNYAGKFQGRVTITADTSASTAYMELSSLRSEDTAVYYCARLLRNQPGESYAMDYWGQGTLVTVSS
VL: DVVMTQSPDSLAVSLGERATINCRSSQSLVHSNGYTYLHWYQQKPGQSPKLLIYKVSNRFSGVPDRFSGSGSGTDFTLTISSLQAEDVAVYYCSQSTRVPYTFGGGTKVEIK
B21: AL2p-61 huIgG1 (antibody, V domains shown)
VH: QVQLVQSGAEVKKPGSSVKVSCKASGYAFSSQWMNWVRQAPGQGLEWMGRIYPGEGDTNYARKFQGRVTITADESTSTAYMELSSLRSEDTAVYYCARLLRNQPGESYAMDYWGQGTLVTVSS
VL: GVVMTQTPLSLSVTPGQPASISCRSSQSLVHSNQYTYLHWYLQKPGQSPQLLIYKVSNRRSGVPDRFSGSGSGTDFTLKISRVEAEDVGVYYCSQSTRVPYTFGQGTKLEIKR

For one test, the target named is human TREM2 expressed on cells (human) (UniProt Q9NZC2). The test is described as follows: FACS. Background: A flow cytometer gives signals particle by particle.
Regarding B1, the binding result is reported as “binds”.

For B2, the binding entry is recorded as “binds”.

As for B3, the binding entry was “binds”.

Turning to B4, the binding entry is listed as “binds”.

B5: the binding result is “binds”.

For the molecule B6, the binding entry is “binds”.

Regarding B7, the binding result was “binds”.

For the molecule B8, the binding result is “binds”.

With B9, the binding entry is “binds”.

As for B10, the binding entry was “binds”.

B11: the binding result is “binds”.

Take B12: the binding result is given as “binds”.

In the case of B13, the binding entry is listed as “binds”.

For B14, the binding entry was “binds”.

Regarding B15, the binding result is recorded as “binds”.

For B16, the binding entry is “binds”.

As to B17, the binding entry was “binds”.

For another test the target is unchanged. The test is described as follows: FACS, BW cells.
Consider B18, for which the binding result is listed as “binds”.

On to B19, for which the binding result is “binds”.

Turning to B20, the binding result is reported as “binds”.

With B21, the binding result was “binds”.
